These are yes or no findings as the source states them, for the method shown. Binding seen in cells or lysates may run through a third protein. Some entries that bind do so weakly or less than the wild type.
Tests used:
[1] = target: T1, Transmembrane-4 L-six family member-1 (TM4SF1), endogenous (human (endogenous in Eca109 and ESCC patient tissue)) (UniProt P30408); test: co-IP; endogenous TM4SF1 immunoprecipitated with anti-TM4SF1 antibody and protein-A/G PLUS beads from Eca109 cells cultured with or without laminin-coating; 0.1% Triton TBS (20 mM Tris-HCl pH 7.4, 150 mM NaCl), 4 °C; blots for integrin α6, β4, β1
T1 sequence: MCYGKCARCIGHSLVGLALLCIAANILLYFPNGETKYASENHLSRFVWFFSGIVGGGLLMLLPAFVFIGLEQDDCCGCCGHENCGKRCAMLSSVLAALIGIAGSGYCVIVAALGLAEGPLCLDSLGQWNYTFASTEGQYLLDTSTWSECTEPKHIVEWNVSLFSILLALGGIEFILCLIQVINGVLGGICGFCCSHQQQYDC

Amino acid sequences for entries named in this document (tags omitted). A change or cut given only in a name is not applied to a line headed by its entry.
UniProt P05556: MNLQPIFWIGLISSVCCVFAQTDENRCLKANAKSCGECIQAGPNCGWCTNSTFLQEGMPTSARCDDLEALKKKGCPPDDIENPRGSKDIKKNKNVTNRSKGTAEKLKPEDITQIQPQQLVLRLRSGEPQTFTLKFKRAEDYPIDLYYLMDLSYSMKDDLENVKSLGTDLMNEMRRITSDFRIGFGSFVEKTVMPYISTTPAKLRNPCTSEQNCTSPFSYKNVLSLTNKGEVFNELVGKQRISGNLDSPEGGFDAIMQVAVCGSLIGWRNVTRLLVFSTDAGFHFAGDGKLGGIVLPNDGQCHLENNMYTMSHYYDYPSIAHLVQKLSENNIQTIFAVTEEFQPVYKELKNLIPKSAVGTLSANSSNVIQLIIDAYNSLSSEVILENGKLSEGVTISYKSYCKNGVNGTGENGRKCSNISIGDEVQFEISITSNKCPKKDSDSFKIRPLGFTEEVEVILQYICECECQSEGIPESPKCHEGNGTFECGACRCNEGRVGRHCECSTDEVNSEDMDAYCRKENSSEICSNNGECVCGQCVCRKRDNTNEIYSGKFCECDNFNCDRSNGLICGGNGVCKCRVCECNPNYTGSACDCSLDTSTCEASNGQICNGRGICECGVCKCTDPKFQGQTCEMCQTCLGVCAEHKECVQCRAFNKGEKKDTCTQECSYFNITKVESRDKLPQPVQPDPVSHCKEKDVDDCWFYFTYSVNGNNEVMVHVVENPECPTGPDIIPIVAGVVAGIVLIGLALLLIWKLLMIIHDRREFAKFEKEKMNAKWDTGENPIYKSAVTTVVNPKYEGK

[2] = target: T1, Transmembrane-4 L-six family member-1 (TM4SF1), endogenous (human (endogenous in Eca109 and ESCC patient tissue)); test: co-IP; endogenous TM4SF1 immunoprecipitated with anti-TM4SF1 antibody and protein-A/G PLUS beads from homogenized ESCC patient tissue lysate; 0.1% Triton TBS (20 mM Tris-HCl pH 7.4, 150 mM NaCl), 4 °C; blots for integrin α6, β4, β1

binding [1]: binds
binding [2]: binds
Substance: integrin β1 (from UniProt P05556 21-798) (receptor)

From article PMC9283456
